No constants are given. Whether binding was seen depends on the method and setting. In cells and extracts the contact can be indirect. A result given as binding can be weak or reduced; the word gives no strength. Where a sequence is shown, tags or fusion partners need not be part of it.
Target: HA-BMP2 (bone morphogenetic protein 2) (UniProt P12643)
Assay: co-IP; 293T cells co-transfected with two tagged constructs; MG132 12 h before harvest; EBC lysis buffer; 500 μg protein with anti-FLAG M2-agarose or anti-HA agarose beads, 3 h, 4 °C; washed four times with NETN buffer; immunoblot

Amino acid sequences for entries named in this document (tags omitted). A change or cut given only in a name is not applied to a line headed by its entry.
UniProt P12643: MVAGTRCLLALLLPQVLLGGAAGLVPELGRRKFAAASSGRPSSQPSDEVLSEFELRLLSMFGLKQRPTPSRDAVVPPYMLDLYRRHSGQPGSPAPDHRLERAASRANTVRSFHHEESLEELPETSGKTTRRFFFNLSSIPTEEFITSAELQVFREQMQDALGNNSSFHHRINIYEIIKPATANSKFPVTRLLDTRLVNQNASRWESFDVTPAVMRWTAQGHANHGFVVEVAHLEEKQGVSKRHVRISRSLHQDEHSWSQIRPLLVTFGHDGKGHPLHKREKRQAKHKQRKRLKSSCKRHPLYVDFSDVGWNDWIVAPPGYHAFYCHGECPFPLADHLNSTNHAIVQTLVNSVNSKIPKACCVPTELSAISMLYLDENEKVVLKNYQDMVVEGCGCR

binding: binds
B1: Flag-OMD (full-length osteomodulin) (protein, UniProt Q99983 21-421)
chain: QYETYQWDEDYDQEPDDDYQTGFPFRQNVDYGVPFHQYTLGCVSECFCPTNFPSSMYCDNRKLKTIPNIPMHIQQLYLQFNEIEAVTANSFINATHLKEINLSHNKIKSQKIDYGVFAKLPNLLQLHLEHNNLEEFPFPLPKSLERLLLGYNEISKLQTNAMDGLVNLTMLDLCYNYLHDSLLKDKIFAKMEKLMQLNLCSNRLESMPPGLPSSLMYLSLENNSISSIPEKYFDKLPKLHTLRMSHNKLQDIPYNIFNLPNIVELSVGHNKLKQAFYIPRNLEHLYLQNNEIEKMNLTVMCPSIDPLHYHHLTYIRVDQNKLKEPISSYIFFCFPHIHTIYYGEQRSTNGQTIQLKTQVFRRFPDDDDESEDHDDPDNAHESPEQEGAEGHFDLHYYENQE

Source: paper PMC7862363
